Source: paper PMC9448382, “Fluorosulfate-containing pyrazole heterocycles as selective BuChE inhibitors: structure-activity relationship and biological evaluation for the treatment of Alzheimer’s disease” (Journal of Enzyme Inhibition and Medicinal Chemistry, 2022)

System: Aβ1–42
Experiment: Brain Aβ1–42 total amount by mouse ELISA kit
Assay type: in vivo
Settings: mice, Aβ1–42 icv model, K3 10 mg/kg po, donepezil 15 mg/kg po
Method: In the Aβ1–42 oligomeric damage experiment, all mice were sacrificed after the behavioural research was completed, and the brains were collected to assess the total content of Aβ1–42 using a mouse ELISA kit. Each brain tissue sample was thoroughly homogenised in a grinder with 10 times PBS (pH = 7.4 ± 0.1) before being centrifuged for 5 min at 5000×g. The supernatant was separated for use. The detection technique followed the directions exactly, and the standard curve was created. Brain tissue Aβ1–42 content was calculated according to the linear regression equation. All values were expressed as mean ± SEM using GraphPadPrism8.0 software.

SMILES: COc1cc2c(cc1OC)C(=O)C(CC1CCN(Cc3ccccc3)CC1)C2 (stereo not shown) [Donepezil, reference compound]
- decrease of Aβ1–42 peptides in brain: 14.5%
